# Assay results reported in US7629001B2, “Substrate for volatile delivery systems” (S.C. Johnson & Son, Inc., priority 2003, dated 2009).
# Experiment: release of straight transfluthrin from loaded substrate heated with an approximately 70° C. heater
compound,measurement,value
"CC1(C)[C@H](C=C(Cl)Cl)[C@H]1C(=O)OCc1c(F)c(F)cc(F)c1F [transfluthrin, Transfluthrin]",amount of transfluthrin that comes off the substrate,essentially all
same,manner of release from the substrate,linear manner
